Measurements as given in article PMC12431657, “Discovery and mechanistic insights of dibenzoylmethane as a broad spectrum inhibitor of coronavirus” (PLOS Pathogens, 2025).
Structures can show the parent of a compound that is named as a salt. Where two headings read alike, the source gives them in different places. Among all 3,300 compounds or so, about 95 (3%) showed an effect of 50% or more. The list shows a part of the results. Numbered stars: 1 amine (or outer) side, 2 acyl side, 3 side chain; on linkers, the order of the positions; unused ones are H or OH. Bridge positions count the residues as written; N and C are the ends. Square brackets hold non-standard residues; d marks the D form. Peptide text beside a SMILES is read from it. hTyr(3S-OH,4S-OH,3'-OSO3H) = N[C@H](C(=O)O)[C@H](O)[C@@H](O)c1ccc(O)c(OS(=O)(=O)O)c1; Orn(4R-OH,5R-OH) = O=C([C@H](C[C@@H](O)[C@@H](O)N[*:3])N[*:1])[*:2]; Pro(3S-OH,4S-Me) = C[C@H]1CN[C@H](C(=O)O)[C@H]1O; Gln(3R-OH) = NC(=O)C[C@@H](O)[C@H](N)C(=O)O; Hyp = O=C(O)[C@@H]1C[C@@H](O)CN1

System: HCoV-229E
Set-up: species or system Huh-7; HTS, protection from HCoV-229E induced cell death, luminescent cell viability (CellCounting-Lite 2.0), inhibition rate
Conditions: 24 h post infection, 1 h compound pre-incubation, 10 µM, inhibitor

## COC(=O)[C@H]1O[C@@H](Oc2cc3oc(-c4ccccc4)cc(=O)c3c(O)c2O)[C@H](O)[C@@H](O)[C@@H]1O [Baicalin methyl ester]
  229E Inhibition rate: 21%

## COc1c(C)c2c(c(O)c1C/C=C(\C)CCC(=O)O)C(=O)OC2 [Mycophenolic acid]
  229E Inhibition rate: 35%

## CC(C)C[C@H](NC(=O)CN)C(=O)O [Glycyl-L-leucine]
  229E Inhibition rate: 13.8%

## CC(C)c1ccc2c(c1)CC[C@H]1[C@](C)(CN)CCC[C@]21C [Leelamine (hydrochloride)]
  229E Inhibition rate: 5.7%

## Nc1ccc(C(=O)O)cc1 [4-Aminobenzoic acid]
  229E Inhibition rate: 0%

## O=C(O)C1=CO[C@@H](O[C@@H]2O[C@H](CO)[C@@H](O)[C@H](O)[C@H]2O)[C@@H]2C(CO)=CC[C@H]12 [Geniposidic acid]
  229E Inhibition rate: 6.8%

## Cc1ncc(CO)c(CN)c1O [Pyridoxylamine]
229E Inhibition rate, 24 h
  229E Inhibition rate: 22.7%

## CCCCCCCC/C=C\CCCCCCCC(=O)NCc1ccccc1 [N-Benzyloleamide]
  229E Inhibition rate: 52.8%

## CC(=O)N[C@@H](CCCN=C(N)N)C(=O)O [N-Acetyl-L-arginine]
  229E Inhibition rate: 23%

## O=C1O[C@H]([C@@H](O)CO)C(=O)C1=O [Dehydroascorbic acid]
  229E Inhibition rate: 15.1%

## O=C(O)CC(O)(CC(=O)O)C(=O)O [Lithium citrate (tetrahydrate)]
229E Inhibition rate, 24 h
  229E Inhibition rate: 15.8%

## COc1c(O)cc2oc(-c3ccc(O)cc3)cc(=O)c2c1O [Hispidulin]
  229E Inhibition rate: 32.8%

## CCC/C=C\C=C\CCCCCCCCCO [Bombykol]
  229E Inhibition rate: 19.5%

## COc1ccc2c(c1)OC(O)C(=O)N2O (stereo not shown) [DIMBOA]
  229E Inhibition rate: 37.2%

## C=C1CC[C@@]2(OC1)O[C@H]1C[C@H]3[C@@H]4CC=C5C[C@@H](O)C[C@@H](O)[C@]5(C)[C@H]4CC[C@]3(C)[C@H]1[C@@H]2C [Neoruscogenin]
  229E Inhibition rate: 19.5%

## CCC(C)C(=O)O[C@@H]1[C@@H](OC(C)=O)[C@]2(C)[C@H](C(C)=O)CC[C@@]23O[C@]32CC[C@H]3C[C@@H](O[C@H]4C[C@@H](OC)[C@H](O[C@@H]5O[C@H](C)[C@@H](O)[C@@H](OC)[C@H]5O)[C@@H](C)O4)CC[C@]3(C)[C@@H]12 (stereo partly shown) [Tenacissoside H]
  229E Inhibition rate: 23.1%

## C[C@]12C=CC(=O)C=C1CC[C@H]1[C@@H]3C[C@@H](O)[C@](O)(C(=O)CO)[C@@]3(C)C[C@H](O)[C@@]12F [Triamcinolone]
  229E Inhibition rate: 0%

## O=C(O)C(=O)Cc1ccc(O)cc1 [4-Hydroxyphenylpyruvic acid]
  229E Inhibition rate: 21.1%

## COc1cc(-c2cc(=O)c3c(O)cc(O[C@@H]4O[C@H](CO)[C@@H](O)[C@H](O)[C@H]4O[C@@H]4OC[C@](O)(CO)[C@H]4O)cc3o2)ccc1O [3'-Methoxyapiin]
  229E Inhibition rate: 18.5%

## Nc1nc(N)nc(NC2CC2)n1 [Cyromazine]
  229E Inhibition rate: 6.2%

## C[C@@H]1O[C@@H](OC[C@H]2O[C@@H](Oc3c(-c4ccc(OCCO)c(OCCO)c4)oc4cc(OCCO)cc(O)c4c3=O)[C@H](O)[C@@H](O)[C@@H]2O)[C@H](O)[C@H](O)[C@H]1O [Troxerutin]
  229E Inhibition rate: 50.2%

## C=C1CC[C@H]2C[C@@H]1C2(C)C [β-Pinene]
  229E Inhibition rate: 40.3%

## C[C@@H](O)[C@@H]1NC(=O)[C@@H](N)C[C@@H](O)[C@@H](O)NC(=O)[C@@H]2[C@@H](O)[C@@H](C)CN2C(=O)[C@H]([C@H](O)CC(N)=O)NC(=O)[C@H]([C@H](O)[C@@H](O)c2ccc(O)c(OS(=O)(=O)O)c2)NC(=O)[C@@H]2C[C@@H](O)CN2C1=O [FR179642] (H-[Orn(4R-OH,5R-OH)]T[Hyp][hTyr(3S-OH,4S-OH,3'-OSO3H)][Gln(3R-OH)][Pro(3S-OH,4S-Me)]; lactam 1-C)
  229E Inhibition rate: 10.5%

## O=c1c(O[C@@H]2O[C@H](CO)[C@@H](O)[C@H](O)[C@H]2O)c(-c2ccc(O)c(O)c2)oc2cc(O)cc(O)c12 [Isoquercitrin]
229E Inhibition rate, 24 h
  229E Inhibition rate: 7.7%

## COc1ccc(/C=C/C(=O)c2ccc(OC)cc2)cc1 [4,4'-Dimethoxychalcone]
  229E Inhibition rate: 21.7%

## CC(C)C[C@H](O)C(=O)O [(S)-Leucic acid]
  229E Inhibition rate: 20.8%

## CC(C)=CC/C=C(\C)[C@H]1CC[C@]2(C)[C@@H]1[C@H](O)C[C@@H]1[C@@]3(C)CC[C@H](O[C@@H]4O[C@H](CO)[C@@H](O)[C@H](O)[C@H]4O[C@@H]4O[C@H](CO)[C@@H](O)[C@H](O)[C@H]4O)C(C)(C)[C@@H]3CC[C@]12C [Ginsenoside Rg5]
  229E Inhibition rate: 9.8%

## C=C[C@H](O)CC(=NOS(=O)(=O)O)S[C@@H]1O[C@H](CO)[C@@H](O)[C@H](O)[C@H]1O [Progoitrin]
  229E Inhibition rate: 26%

## CCCCCCCC/C=C\CCCCCCCC(=O)NCCO [Oleoylethanolamide]
  229E Inhibition rate: 11.2%

## O=C(O)[C@H](O)[C@@H](O)[C@H](O[C@@H]1O[C@H](CO)[C@H](O)[C@H](O)[C@H]1O)[C@H](O)CO [Lactobionic acid]
  229E Inhibition rate: 13.6%

## O=c1c2ccccc2nc2n1CC[C@@H]2O [Vasicinone]
  229E Inhibition rate: 9.2%

## C#C[C@]1(O)CC[C@H]2[C@@H]3CCc4cc(O)ccc4[C@H]3CC[C@@]21C [Ethynyl Estradiol]
  229E Inhibition rate: 15.3%

## OCc1cccc2ccccc12 [1-Naphthalenemethanol]
  229E Inhibition rate: 7.4%

## CC(C)=CCC[C@](C)(O[C@@H]1O[C@H](CO[C@@H]2OC[C@@H](O)[C@H](O)[C@H]2O)[C@@H](O)[C@H](O)[C@H]1O)[C@H]1CC[C@]2(C)[C@@H]1[C@H](O)C[C@@H]1[C@@]3(C)CC[C@H](O[C@@H]4O[C@H](CO)[C@@H](O)[C@H](O)[C@H]4O[C@@H]4O[C@H](CO)[C@@H](O)[C@H](O)[C@H]4O[C@@H]4OC[C@@H](O)[C@H](O)[C@H]4O)C(C)(C)[C@@H]3CC[C@]12C [Notoginsenoside Fc]
  229E Inhibition rate: 21%

## Cc1occc(=O)c1O [Maltol]
  229E Inhibition rate: 35.7%

## C[C@@H]1O[C@H]2O[C@H]3[C@@H](OC[C@H](O)[C@@H]3O)OC(=O)[C@]34CCC(C)(C)C[C@H]3C3=CC[C@@H]5[C@@]6(C)C[C@H](O)[C@H](O[C@@H]7O[C@H](CO)[C@@H](O)[C@H](O)[C@H]7O[C@@H]7OC[C@H](OC(=O)C[C@](C)(O)CC(=O)O[C@@H]1[C@@H](O[C@@H]1OC[C@@H](O)[C@H](O)[C@H]1O)[C@H]2O)[C@H](O)[C@H]7O)[C@@](C)(CO)[C@@H]6CC[C@@]5(C)[C@]3(C)C[C@H]4O [Tubeimoside II]
  229E Inhibition rate: 0.9%

## O=C(O)c1ccoc1 [3-Furanoic acid]
  229E Inhibition rate: 25.5%

## OC[C@H]1O[C@H](O[C@H]2[C@H](O)[C@@H](O)[C@H](O)O[C@@H]2CO)[C@H](O)[C@@H](O)[C@@H]1O [Maltose]
229E Inhibition rate, 24 h
  229E Inhibition rate: 7.5%

## CC(C)=CCC[C@](C)(O[C@@H]1O[C@H](CO)[C@@H](O)[C@H](O)[C@H]1O)[C@H]1CC[C@]2(C)[C@@H]1[C@H](O)C[C@@H]1[C@@]3(C)C[C@@H](O)[C@H](O[C@@H]4O[C@H](CO)[C@@H](O)[C@H](O)[C@H]4O[C@@H]4O[C@H](CO)[C@@H](O)[C@H](O)[C@H]4O)C(C)(C)[C@@H]3CC[C@]12C [Gypenoside XLVI]
  229E Inhibition rate: 10.6%

## COc1ccc2[nH]cc(CC(=O)O)c2c1 [5-Methoxyindole-3-acetic acid]
  229E Inhibition rate: 8.7%

## CC1(C)C2=CCCC(C)(C)[C@]23CC[C@H]1C3 [Isolongifolene]
  229E Inhibition rate: 0%

## COc1ccc2c(c1OC)C(=O)OC2 [Meconine]
  229E Inhibition rate: 3.9%

## COc1cc(OC)cc(C(=O)O)c1 [3,5-Dimethoxybenzoic acid]
  229E Inhibition rate: 7.6%

## OC[C@H]1O[C@H](OC[C@H]2OC(O)[C@H](O)[C@@H](O)[C@@H]2O)[C@H](O)[C@@H](O)[C@@H]1O (stereo partly shown) [Isomaltose]
  229E Inhibition rate: 12.3%

## CC[C@@H]1[C@H]2CCCCN3[C@H]2[C@H](C[C@H]3[C@@H]2C[C@H](C)C(=O)O2)[C@@H]2[C@H]1OC(=O)[C@H]2C [Tuberostemonine]
  229E Inhibition rate: 32.6%

## Cc1cc(O)c(C(=O)CCC(C)C)c(=O)o1 [Pogostone]
  229E Inhibition rate: 6.7%

## Nc1ncnc2c1ncn2[C@H]1C[C@H](O)[C@@H](COP(=O)(O)O)O1 [2'-Deoxyadenosine-5'-monophosphate]
  229E Inhibition rate: 0%

## COc1cc(C=CC(=O)O)cc(OC)c1O (stereo in doubt) [Sinapinic acid]
  229E Inhibition rate: 20.1%

## CCCCC(CC)COC(=O)C=Cc1ccc(OC)cc1 (stereo not shown) [Octinoxate]
  229E Inhibition rate: 13.8%

## O=CC[C@H](O)[C@H](O)CO [Thyminose]
  229E Inhibition rate: 3.9%

## COc1ccc(/C=C\c2cc(OC)c(OC)c(OC)c2)cc1O [Combretastatin A4]
  229E Inhibition rate: 17.1%

## COc1cc(CN)ccc1O [Vanillylamine]
  229E Inhibition rate: 9.8%

## COc1cc2oc(=O)ccc2cc1CC=C(C)C [Suberosin]
  229E Inhibition rate: 15.6%

## COc1cc(/C=C/c2ccc(O)cc2)cc(OC)c1 [Pterostilbene]
  229E Inhibition rate: 13%

## CC(C)(O)[C@@H]1CC[C@](C)([C@H]2[C@@H](O)C[C@@]3(C)[C@@H]4C[C@H](O[C@@H]5O[C@H](CO)[C@@H](O)[C@H](O)[C@H]5O)[C@H]5C(C)(C)[C@@H](O[C@@H]6OC[C@@H](O)[C@H](O)[C@H]6O[C@@H]6O[C@H](CO)[C@@H](O)[C@H](O)[C@H]6O)CC[C@@]56C[C@@]46CC[C@]23C)O1 [Astragaloside VI]
  229E Inhibition rate: 27.8%
